Results on 59 compounds are retold here after PubChem BioAssay AID445 (National Center for Advancing Translational Sciences (NCATS), 2006).

This is one part of the list. The main result of the screen is listed elsewhere. These columns were measured beside it and carry no call. Compounds called inactive in the main read-out are mostly missing here. The note in brackets gives the kind of curve behind each potency; many fits are weak. *1 amine or outer side, *2 acyl side, *3 side chain or, on linkers, in order; H or OH if unused. Where a SMILES comes first, the peptide text is derived from it. Bridges are numbered along the chain shown (N, C = ends). Roman numbers before positions name the chains, in order. [ ]: non-standard residue; d: D form. Actinocin(9to1) = Cc1c2oc3c(C)ccc(C(=O)[*:1])c3nc-2c(C(=O)[*:2])c(N)c1=O; NMeV = CN[C@H](C(=O)O)C(C)C; Sar = CNCC(=O)O

A short description of this experiment: IkB Signaling. The conditions noted are these: ABC-DLBCL IkBa-CBG/CBR dual luciferase ratio (green luciferase fused to IkBa over red control in OCI-Ly3 lymphoma cells), 4 h; measured here: control luc red channel unless noted. In short, it runs like this:
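Luminescence ratio of IκBα-fused green versus native red beetle luciferase in OCI-Ly3 cells, 4 h post-doxycycline with compound; red signal alone, scaled from basal (0%) to zero light (-100%), flagged nonspecific or cytotoxic effects.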
Broadly, the AC50 is the midpoint of the concentration-response curve, whichever way the signal moves. For `Cc1ccccc1NC(=O)c1sc2nc3c(cc2c1N)CN(Cc1ccccc1)CC3`, the AC50 is 3.16 µM [falling, partial curve].

As to `CCOC(=O)c1ccc(NC(=O)CCc2nc(-c3ccccc3)no2)cc1`, the AC50 is 15.8 µM [falling, partial curve].

Turning to `COc1cccc(N2CCN(C(=O)CN3CCSc4ccccc43)CC2)c1`, the AC50 is 7.94 µM [falling, partial curve].

With `O=C(O)CCc1nc(-c2ccc(Cl)cc2)no1`, the AC50 was 5.01 µM [falling, partial curve].

Consider `COc1ccc(CC(=O)N2CCc3cc(OC)c(OC)cc3C2COc2ccc3c(C)cc(=O)oc3c2)cc1OC` (centres undefined), for which the AC50 was 0.1 µM [falling, partial curve].

`Cc1c2oc3c(C)ccc(C(=O)N[C@@H]4C(=O)N[C@H](C(C)C)C(=O)N5CCC[C@H]5C(=O)N(C)CC(=O)N(C)[C@@H](C(C)C)C(=O)O[C@@H]4C)c3nc-2c(C(=O)N[C@@H]2C(=O)N[C@H](C(C)C)C(=O)N3CCC[C@H]3C(=O)N(C)CC(=O)N(C)[C@@H](C(C)C)C(=O)O[C@@H]2C)c(N)c1=O` (I: T[dV]P[Sar][NMeV] / II: T[dV]P[Sar][NMeV]; ester I:1-I:C, II:1-II:C; linker I:N-II:N via Actinocin(9to1)): the AC50 is 0.001 µM [falling, full curve].

In the case of `Cc1cc2c(cc3c(SCC(=O)Nc4ccc(Cl)cc4F)nncn32)o1`, the AC50 is 10 µM [falling, partial curve].

With `COc1ccc(CCN2C(=O)C3C4C=CC(C4)C3C2=O)cc1OC` (centres undefined), the AC50 was 31.6 µM [rising, single point] [measured here: IkB-luc green channel].

For the compound `CCc1cccc(C)c1Nc1c(-c2ccsc2)nc2ncccn12`, the AC50 was 39.8 µM [falling, single point].

Regarding `CCOc1c(Cl)cc(C(=O)N(Cc2ccc(N(C)C)cc2)Cc2ccco2)cc1Cl`, the AC50 is 12.6 µM [falling, partial curve].

Regarding `COc1ccc(CNC(=O)C2CCCN(c3nnc(C)c4c(C)n(-c5ccc(C)cc5)nc34)C2)cc1` (centres undefined), the AC50 is 12.6 µM [falling, partial curve].

As for `CCC(Sc1nc2ncccc2o1)C(=O)Nc1ccc(OC)c(OC)c1` (centres undefined), the AC50 was 10 µM [falling, partial curve].

Consider `CCOc1ccccc1N(C)C(=O)c1c2c(nc3ccccc13)C(=O)N(C1CCCCC1)C2`, for which the AC50 is 15.8 µM [falling, partial curve].

In the case of `Cc1cc(C)cc(NC(=O)c2c(C)oc3nc(C)nc(N4CCCC4)c23)c1`, the AC50 is 15.8 µM [falling, partial curve].

`CCc1ccc(OCC(=O)Nc2ncn[nH]2)c(Br)c1`: the AC50 is 1 µM [rising, full curve].

Consider `O=C(Nc1nc(-c2ccccc2)cs1)c1cccs1`, for which the AC50 is 10 µM [falling, partial curve].

Turning to `COc1cccc(Cn2c(-c3nonc3NC(C)=O)nc3ccccc32)c1`, the AC50 is 25.1 µM [falling, single point].

Consider `COc1cccc(-c2noc(-c3cc(C(C)C)[nH]n3)n2)c1OC`, for which the AC50 is 0.316 µM [rising, full curve].

Turning to `COc1ccccc1CNC(=O)CCNS(=O)(=O)c1ccc2c(c1)oc(=O)n2C`, the AC50 was 31.6 µM [falling, single point].

For the compound `COc1ccc(-c2noc(C)c2-c2ccc3ccccc3n2)c(O)c1`, the AC50 is 20 µM [falling, partial curve].

On to `O=C(COc1ccc(F)cc1)NCc1ccc2c(c1)CCN2C(=O)c1ccccc1`, for which the AC50 was 39.8 µM [falling, single point].

On to `CNC(=O)c1ccc2c(c1)N(Cc1ccccc1Cl)C(=O)c1ccccc1S2`, for which the AC50 is 25.1 µM [falling, partial curve].

As to `Cc1cccc(NC(=O)c2sc3nc(-c4cc5ccc(O)cc5oc4=O)[nH]c(=O)c3c2C)c1`, the AC50 is 0.794 µM [falling, full curve].

For the compound `O=C(Cn1c(=O)nc(-c2ccccc2F)c2cc(Cl)ccc21)NCCCc1ccccc1`, the AC50 is 25.1 µM [falling, partial curve].

On to `Cc1nc(-n2nc(C)c(CCC(C)C)c2C)sc1C(=O)Nc1cccc(Cl)c1`, for which the AC50 was 12.6 µM [falling, partial curve].

In the case of `COc1ccc(Cl)cc1NC(=O)Cn1c(=O)c2ccccc2n2nncc12`, the AC50 is 31.6 µM [falling, partial curve].

On to `Clc1ccc(NCc2nc3ccccc3n2CCOc2ccccc2)cc1`, for which the AC50 was 0.1 µM [falling, full curve].

Take `Cc1cccc(-n2nnnc2SC(C)C(=O)NCCC2=CCCCC2)c1` (centres undefined): the AC50 is 10 µM [falling, partial curve].

`O=C(CCS(=O)(=O)c1cc(Br)cc2c1N(C(=O)C1CC1)CC2)NCc1ccco1`: the AC50 was 25.1 µM [rising, single point] [measured here: IkB-luc green channel].

In the case of `CCN(C(=O)CSc1nc2ccccc2nc1Cc1ccc(F)cc1)c1cccc(C)c1`, the AC50 is 39.8 µM [falling, partial curve].

For the compound `CC(=O)N1CCc2cc(S(=O)(=O)NC3CCCc4ccccc43)ccc21` (centres undefined), the AC50 was 20 µM [falling, partial curve].

In the case of `O=C(O)Cn1nnn(-c2ccccc2)c1=S`, the AC50 was 10 µM [falling, partial curve].

Take `COc1ccc(C(=O)Nc2nc3ccccc3n2CCOc2ccc(Cl)cc2)cc1`: the AC50 was 2 µM [falling, full curve].

With `CCOc1ccc(N(CC)C(=O)CCc2nc(-c3ccccc3F)no2)cc1`, the AC50 was 39.8 µM [falling, single point].

For the compound `CCC(Sc1nnc(-c2ccc(OC)c(OC)c2)c(-c2ccc(OC)c(OC)c2)n1)C(=O)NC1CCCC1` (centres undefined), the AC50 was 2.51 µM [rising, partial curve].

Regarding `CCc1ccc(N/C(SCc2cccc(F)c2)=C(/C#N)C(=O)NCc2ccco2)cc1`, the AC50 is 5.01 µM [falling, partial curve].

In the case of `CCc1ccc(NC(=O)C(Cc2ccccc2)NS(=O)(=O)c2ccc3c(c2)c(=O)n(C)c(=O)n3C)cc1` (centres undefined), the AC50 is 15.8 µM [falling, partial curve].

On to `CCCOc1ccc(Oc2nc(NCC(C)C)nc(N(C)C)n2)nn1`, for which the AC50 is 25.1 µM [falling, single point].

For `CCn1c(SCC(=O)Nc2ccc3c(c2)c2ccccc2n3CC)nnc1-c1ccco1`, the AC50 is 10 µM [falling, partial curve].

For the compound `On1onc2c3cc(-c4ccccc4)nc3ccc21`, the AC50 was 20 µM [falling, partial curve].

As for `O=[N+]([O-])c1ccc(F)cc1F`, the AC50 is 39.8 µM [rising, single point] [measured here: IkB-luc green channel].

As to `CCOc1ccc(C(=O)Nc2ccc(-n3nncc3-c3ccc(OC)cc3)cc2)cc1`, the AC50 is 20 µM [falling, single point].

As to `COc1ccc(CCn2c(N)c(C(=O)NCc3ccco3)c3nc4ccccc4nc32)cc1OC`, the AC50 was 12.6 µM [falling, partial curve].

As for `COc1ccccc1NC(=O)C1=C(C)Nc2nc(-c3ccco3)nn2C1c1ccccc1F` (centres undefined), the AC50 is 12.6 µM [falling, partial curve].

As for `Cc1cc(F)ccc1S(=O)(=O)Nc1ccccc1C(=O)Nc1ccc2[nH]c(=O)[nH]c2c1`, the AC50 is 15.8 µM [falling, partial curve].

For the compound `CC(=O)c1ccc(NC(=O)CCc2c(C)nn(-c3ccc4nnc(C)n4n3)c2C)cc1`, the half-maximal activity concentration (AC50) was 39.8 µM [falling, partial curve, poor fit].

For `Nc1c(S(=O)(=O)c2cccs2)c2nc3ccccc3nc2n1Cc1ccc2c(c1)OCO2`, the AC50 is 7.94 µM [falling, full curve].

Consider `O=C(CSc1nc(-c2ccccc2)nc2cc(=O)[nH]n12)Nc1ccccc1`, for which the AC50 is 39.8 µM [falling, single point].

`CCc1nc(-c2ccc(C)c(S(=O)(=O)N3CCN(c4ccc(C(C)=O)cc4)CC3)c2)no1`: the AC50 was 1.26 µM [rising, partial curve].

With `Cc1ccccc1C(=O)N1c2ncnn2C2(CCCCC2)[C@@H]2CCCC[C@@H]21`, the AC50 is 25.1 µM [falling, partial curve, poor fit].

As for `CC(C)Nc1nc2c(-c3cccc(Br)c3)nnn2c2ccccc12`, the AC50 was 0.0126 µM [falling, full curve].

Take `CCc1c(C)sc2c1CCN(C(=O)Nc1cc(C)ccc1C)C2c1ccc(OC)cc1` (centres undefined): the AC50 was 39.8 µM [falling, single point].

For `Cc1nc(-c2cccc(S(=O)(=O)N3CCC(C(=O)NCc4ccccc4Cl)CC3)c2)no1`, the AC50 is 3.16 µM [falling, single point].

Consider `Cn1nc(-c2ccccc2F)c2cc(C(=O)NCc3cccc(Cl)c3)sc21`, for which the AC50 was 10 µM [falling, partial curve].

With `Cc1cc(C)cc(NC(=O)c2cc(S(=O)(=O)N3CCCC3)ccc2F)c1`, the AC50 was 20 µM [falling, partial curve].

`Cc1ccc(C)c(NC(=O)c2nnn(Cc3ccc(F)cc3Cl)c2N)c1`: the AC50 was 31.6 µM [falling, partial curve].

Take `O=C(NCCc1ccccc1)c1cnc2sc(N3CCCCC3)nn2c1=O`: the AC50 was 0.251 µM [rising, full curve].

As for `COc1cc(OC)c(NC(=O)N2CCc3cc(S(=O)(=O)N4CCC(C)CC4)ccc32)cc1Cl`, the AC50 is 31.6 µM [falling, single point].

For `Cc1ccc2[nH]c(=O)c(C(c3nnnn3C(C)(C)C)N(Cc3ccco3)CC3CCCO3)cc2c1` (centres undefined), the AC50 is 15.8 µM [rising, partial curve] [measured here: IkB-luc green channel].
